According to publication doi:10.1101/163188:
Construct, isoform or probe ends are uncertain for at least one entry.

Test system: WYL (Thermotoga elfii (Pseudothermotoga elfii))
Experiment: EMSA
Settings: 50 nM protein

## TTTTTTTTTTTTTTTTTTTTTTTTTTTTTTTTTTTTTTTTTTTTTTTTTT [poly(dT) 50mer]
  binding result: binds
